Among the data in paper doi:10.1101/765735 are binding values, retold here.

Protein sequences, listed by entry. Tags and fused reporters are not part of them. Residues count along the entry.
UniProt Q2HR67: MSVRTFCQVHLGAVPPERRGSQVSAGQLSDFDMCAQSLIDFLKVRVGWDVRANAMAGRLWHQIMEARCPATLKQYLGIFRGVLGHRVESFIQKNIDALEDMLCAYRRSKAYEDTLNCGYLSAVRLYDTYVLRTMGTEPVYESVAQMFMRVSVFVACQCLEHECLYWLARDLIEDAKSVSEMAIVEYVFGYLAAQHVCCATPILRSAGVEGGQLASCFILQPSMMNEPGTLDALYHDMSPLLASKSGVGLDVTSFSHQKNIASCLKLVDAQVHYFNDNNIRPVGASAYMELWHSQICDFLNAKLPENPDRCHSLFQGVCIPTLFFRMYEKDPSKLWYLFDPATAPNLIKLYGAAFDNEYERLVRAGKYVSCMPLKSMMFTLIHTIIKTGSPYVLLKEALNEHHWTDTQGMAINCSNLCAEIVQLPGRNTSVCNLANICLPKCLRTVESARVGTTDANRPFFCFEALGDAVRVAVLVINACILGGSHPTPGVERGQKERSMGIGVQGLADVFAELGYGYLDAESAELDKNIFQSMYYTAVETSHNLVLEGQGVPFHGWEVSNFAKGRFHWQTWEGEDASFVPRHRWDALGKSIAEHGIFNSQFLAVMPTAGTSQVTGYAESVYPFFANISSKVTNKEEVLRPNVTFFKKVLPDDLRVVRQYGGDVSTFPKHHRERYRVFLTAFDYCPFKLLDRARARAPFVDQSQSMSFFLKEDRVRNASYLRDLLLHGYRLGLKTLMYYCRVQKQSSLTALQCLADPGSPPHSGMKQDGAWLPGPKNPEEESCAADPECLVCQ
UniProt P08543, residues 2-1137: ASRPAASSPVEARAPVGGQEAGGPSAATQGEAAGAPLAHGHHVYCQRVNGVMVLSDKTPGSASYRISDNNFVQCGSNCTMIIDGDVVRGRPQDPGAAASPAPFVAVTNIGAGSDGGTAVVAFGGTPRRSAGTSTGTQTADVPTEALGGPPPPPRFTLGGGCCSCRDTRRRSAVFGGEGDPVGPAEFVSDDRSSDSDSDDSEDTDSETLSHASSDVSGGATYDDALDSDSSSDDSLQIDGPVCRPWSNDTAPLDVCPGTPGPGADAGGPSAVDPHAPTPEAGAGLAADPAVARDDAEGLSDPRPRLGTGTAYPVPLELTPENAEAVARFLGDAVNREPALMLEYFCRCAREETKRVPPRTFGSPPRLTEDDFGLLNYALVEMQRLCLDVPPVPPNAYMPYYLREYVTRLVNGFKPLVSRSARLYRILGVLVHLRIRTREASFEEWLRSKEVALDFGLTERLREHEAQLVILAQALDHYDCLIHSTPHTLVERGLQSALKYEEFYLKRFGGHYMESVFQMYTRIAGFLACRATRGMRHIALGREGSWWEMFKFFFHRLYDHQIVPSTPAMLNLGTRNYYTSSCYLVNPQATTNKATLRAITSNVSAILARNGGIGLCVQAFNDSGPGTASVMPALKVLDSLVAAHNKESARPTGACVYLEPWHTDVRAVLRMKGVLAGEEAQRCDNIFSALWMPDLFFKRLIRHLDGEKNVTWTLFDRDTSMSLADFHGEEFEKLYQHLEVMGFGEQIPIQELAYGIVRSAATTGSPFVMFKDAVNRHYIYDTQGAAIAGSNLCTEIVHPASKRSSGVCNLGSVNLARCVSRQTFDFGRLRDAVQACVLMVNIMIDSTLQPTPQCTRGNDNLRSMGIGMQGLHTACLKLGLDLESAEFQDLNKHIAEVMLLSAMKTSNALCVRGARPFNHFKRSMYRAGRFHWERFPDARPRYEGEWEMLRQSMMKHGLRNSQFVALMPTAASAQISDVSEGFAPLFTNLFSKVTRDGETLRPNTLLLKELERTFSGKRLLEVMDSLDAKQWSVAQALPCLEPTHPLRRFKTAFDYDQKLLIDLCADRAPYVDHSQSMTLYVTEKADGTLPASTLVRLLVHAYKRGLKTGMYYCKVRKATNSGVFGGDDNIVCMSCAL
UniProt Q9NRW3: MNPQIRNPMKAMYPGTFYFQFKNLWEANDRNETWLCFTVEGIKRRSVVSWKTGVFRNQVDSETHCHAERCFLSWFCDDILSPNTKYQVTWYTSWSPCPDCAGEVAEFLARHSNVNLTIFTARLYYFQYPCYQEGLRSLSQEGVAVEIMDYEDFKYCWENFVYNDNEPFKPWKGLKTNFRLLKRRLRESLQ
UniProt Q96AK3: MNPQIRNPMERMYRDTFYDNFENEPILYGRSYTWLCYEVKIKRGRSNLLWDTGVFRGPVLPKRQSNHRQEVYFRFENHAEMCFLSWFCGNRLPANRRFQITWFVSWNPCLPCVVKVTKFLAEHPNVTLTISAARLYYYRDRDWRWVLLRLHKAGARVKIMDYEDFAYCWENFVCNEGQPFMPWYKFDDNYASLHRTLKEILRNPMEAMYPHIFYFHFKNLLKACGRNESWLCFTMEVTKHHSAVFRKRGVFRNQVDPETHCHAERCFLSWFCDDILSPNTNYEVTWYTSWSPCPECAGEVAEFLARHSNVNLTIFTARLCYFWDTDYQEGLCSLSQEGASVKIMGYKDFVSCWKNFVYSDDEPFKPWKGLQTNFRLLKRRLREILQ

These are yes or no findings as the source states them, for the method shown. In cells and extracts the contact can be indirect. Some binding calls cover weakened binding; strength is not graded here.

Experiment [1] has as its target KSHV ORF61-FLAG (large subunit of the KSHV ribonucleotide reductase) (KSHV) (UniProt Q2HR67). Nature of the experiment: co-IP.
Experiment [2] deals with HSV-1 FLAG-ICP6 (large subunit of the HSV-1 ribonucleotide reductase) (HSV-1) (UniProt P08543). The experiment in a line: co-IP.

Take “human APOBEC3B-HA (from UniProt Q9UH17-1 1-382) (enzyme)”: the binding entry was “binds” in experiment [1] and “binds weakly” in experiment [2]. On to “human APOBEC3C-HA (from UniProt Q9NRW3 1-190) (enzyme)”, for which, in experiment [2], the binding result is recorded as “binds weakly”. Take “human APOBEC3D-HA (from UniProt Q96AK3 1-386) (enzyme)”: the binding entry in experiment [1] and in experiment [2] was “binds weakly” each time.

In the case of “human APOBEC3F-HA (from UniProt Q8IUX4-1 1-373) (enzyme)”, the binding entry in experiment [1] was “binds weakly”. As for “human APOBEC3A-HA (from UniProt P31941-1 1-199) (enzyme)”, the binding entry in experiment [1] and in experiment [2] was “binds” in each case.
